# doi:10.1101/2021.03.24.436811
# These are yes or no findings as the source states them, for the method shown. Binding seen in cells or lysates may run through a third protein. Binding can be weak; no strength is given. Tags and fused reporters may be left off the sequences shown.
# Biological target: T1, 3HA-FBW2 (3x HA epitope at the N-terminus of the F-box protein FBW2) (Arabidopsis thaliana) (UniProt Q9ZPE4)
# T1 sequence: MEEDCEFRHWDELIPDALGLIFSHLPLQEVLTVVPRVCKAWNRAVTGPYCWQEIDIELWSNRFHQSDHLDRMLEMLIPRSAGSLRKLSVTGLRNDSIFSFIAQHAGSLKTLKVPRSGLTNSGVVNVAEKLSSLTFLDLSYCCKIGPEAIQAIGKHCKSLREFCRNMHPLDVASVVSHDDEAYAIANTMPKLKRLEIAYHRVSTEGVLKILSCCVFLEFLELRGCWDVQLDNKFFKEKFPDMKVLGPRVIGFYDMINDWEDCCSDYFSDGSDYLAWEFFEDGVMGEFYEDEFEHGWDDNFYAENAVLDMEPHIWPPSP
# Assay: co-IP
substance,measurement,value
"RBX1, endogenous",binding,binds
